In patent US9861568B2, “Composition for improving skin conditions, containing chlorophyll a or pheophorbide a” (GWANGJU INSTITUTE OF SCIENCE AND TECHNOLOGY, priority 2014, dated 2018):

Tested on: hDF cells
Experiment: Confocal microscopy of intracellular uptake in hDF cells
Type: cell-based, human
Settings: 2 hours

For pheophorbide a, the cell uptake (10 μM compared to 20 μM and 50 μM) was “cell uptake did not occur well” and the “intracellular location by confocal microscope” value was “located in cytoplasm in proportion to its concentration”.
